Paper PMC8199036 (Cancers, 2021)
Starred links: 1 amine or outer side, 2 acyl side, 3 side chain; linkers in the order of their positions; H or OH if unused. Non-standard residues stand in square brackets, D forms with d. Residues, ends and D or L forms follow the SMILES beside them. *: point of attachment. DOTA = O=C(O)CN1CCN(CC(=O)O)CCN(CC(=O)*)CCN(CC(=O)O)CC1; X1 = C[C@@H](C(=O)[*:2])n1cc([C@@H](CCC(=O)O)N[*:1])nn1; X2 = O=C(Cn1cc([C@H](Cc2ccc(O)cc2)N[*:1])nn1)[*:2]; Nle = CCCC[C@H](N)C(=O)O

Experiments:
[1] = system: xenografts of A431-CCK2R cells; experiment: biodistribution in mice with CCK2R-positive xenografts; assay type: in vivo, female CD1-nu mice; details: 4 h p.i.; two-way ANOVA, Bonferroni
Procedure: Procedures for biodistribution studies with ^177Lu-labeled conjugates (10 pmol, 100 µL, 0.1 µM in PBS, 0.5 MBq, 1 µg/kg) in female CD1-nu mice with xenografts of A431-CCK2R cells at 1, 4, and 24 h p.i., as well as blocking experiments at 4 h p.i. with a 6000-fold excess of minigastrin have been reported previously and were followed without modifications. Statistical analysis was performed via GraphPad Prism using two-sided analysis of variance. n = 4 animals per group.

[2] = general procedure: Fmoc solid-phase peptide synthesis; HATU, DIPEA; details: whole synthesis

Molecule | Stomach: reduction of uptake by co-injection of excess minigastrin, Significant? [1] | Tumor: reduction of uptake by co-injection of excess minigastrin, Significant? [1] | isolated yield [2] [%]
CCCC[C@H](NC(=O)[C@H](Cc1c[nH]c2ccccc12)NC(=O)Cn1cc([C@H](Cc2ccc(O)cc2)NC(=O)[C@H](C)n2cc([C@@H](CCC(=O)O)NC(=O)[C@@H](CCC(=O)O)NC(=O)[C@@H](CCC(=O)O)NC(=O)[C@@H](CCC(=O)O)NC(=O)[C@@H](CCC(=O)O)NC(=O)[C@@H](CCC(=O)O)NC(=O)CN3CCN(CC(=O)O)CCN(CC(=O)O)CCN(CC(=O)O)CC3)nn2)nn1)C(=O)N[C@@H](CC(=O)O)C(=O)N[C@@H](Cc1ccccc1)C(N)=O [NMG 3, DOTA-(DGlu)6 -Ψ[Tz]-Ala-Tyr-Ψ[Tz]-Gly-Trp-Nle-Asp-Phe-NH2] ({DOTA}-[dE][dE][dE][dE][dE][X1][X2]W[Nle]DF-NH2) | Yes | Yes | 
DOTA-(DGlu)5-DGlu-Ψ[Tz]-Ala-Tyr-Ψ[Tz]-Gly-Trp-Nle-Asp-Phe-NH2 |  |  | 11.5
HELM PEPTIDE1{[O=C(O)CN1CCN(CC(=O)O)CCN(CC(=O)[*:2])CCN(CC(=O)O)CC1].[dE].[dE].[dE].[dE].[dE].[dE].A.Y.G.[CCCC[C@@H](C(=O)[*:2])n1cc([C@H](Cc2c[nH]c3ccccc23)N[*:1])nn1].D.F.[am]}$$$$V2.0 (SMILES CCCC[C@@H](C(=O)N[C@@H](CC(=O)O)C(=O)N[C@@H](Cc1ccccc1)C(N)=O)n1cc([C@H](Cc2c[nH]c3ccccc23)NC(=O)CNC(=O)[C@H](Cc2ccc(O)cc2)NC(=O)[C@H](C)NC(=O)[C@@H](CCC(=O)O)NC(=O)[C@@H](CCC(=O)O)NC(=O)[C@@H](CCC(=O)O)NC(=O)[C@@H](CCC(=O)O)NC(=O)[C@@H](CCC(=O)O)NC(=O)[C@@H](CCC(=O)O)NC(=O)CN2CCN(CC(=O)O)CCN(CC(=O)O)CCN(CC(=O)O)CC2)nn1) |  |  | 20.9
HELM PEPTIDE1{[O=C(O)CN1CCN(CC(=O)O)CCN(CC(=O)[*:2])CCN(CC(=O)O)CC1].[dE].[dE].[dE].[dE].[dE].[dE].A.[O=C(Cn1cc([C@H](Cc2ccc(O)cc2)N[*:1])nn1)[*:2]].W.[Nle].D.F.[am]}$$$$V2.0 (SMILES CCCC[C@H](NC(=O)[C@H](Cc1c[nH]c2ccccc12)NC(=O)Cn1cc([C@H](Cc2ccc(O)cc2)NC(=O)[C@H](C)NC(=O)[C@@H](CCC(=O)O)NC(=O)[C@@H](CCC(=O)O)NC(=O)[C@@H](CCC(=O)O)NC(=O)[C@@H](CCC(=O)O)NC(=O)[C@@H](CCC(=O)O)NC(=O)[C@@H](CCC(=O)O)NC(=O)CN2CCN(CC(=O)O)CCN(CC(=O)O)CCN(CC(=O)O)CC2)nn1)C(=O)N[C@@H](CC(=O)O)C(=O)N[C@@H](Cc1ccccc1)C(N)=O) |  |  | 19.6
